Source: paper PMC9852426
These are yes or no findings as the source states them, for the method shown. Some binding calls cover weakened binding; strength is not graded here. Sequences can lack the tags named with a protein.

Sequences of proteins named here, by UniProt entry; tags and fusion partners are left off. A change or cut given only in a name is not applied to a line headed by its entry. A line that says so, or that is headed by a name, gives the form on record, which may keep a tag or linker. Residues count along the entry.
plexin-A2 (full length, V5 tagged), re-expressed in U87MG plexin-A2 knock-out clone 54.3 cells (P70207, residues 35-1894): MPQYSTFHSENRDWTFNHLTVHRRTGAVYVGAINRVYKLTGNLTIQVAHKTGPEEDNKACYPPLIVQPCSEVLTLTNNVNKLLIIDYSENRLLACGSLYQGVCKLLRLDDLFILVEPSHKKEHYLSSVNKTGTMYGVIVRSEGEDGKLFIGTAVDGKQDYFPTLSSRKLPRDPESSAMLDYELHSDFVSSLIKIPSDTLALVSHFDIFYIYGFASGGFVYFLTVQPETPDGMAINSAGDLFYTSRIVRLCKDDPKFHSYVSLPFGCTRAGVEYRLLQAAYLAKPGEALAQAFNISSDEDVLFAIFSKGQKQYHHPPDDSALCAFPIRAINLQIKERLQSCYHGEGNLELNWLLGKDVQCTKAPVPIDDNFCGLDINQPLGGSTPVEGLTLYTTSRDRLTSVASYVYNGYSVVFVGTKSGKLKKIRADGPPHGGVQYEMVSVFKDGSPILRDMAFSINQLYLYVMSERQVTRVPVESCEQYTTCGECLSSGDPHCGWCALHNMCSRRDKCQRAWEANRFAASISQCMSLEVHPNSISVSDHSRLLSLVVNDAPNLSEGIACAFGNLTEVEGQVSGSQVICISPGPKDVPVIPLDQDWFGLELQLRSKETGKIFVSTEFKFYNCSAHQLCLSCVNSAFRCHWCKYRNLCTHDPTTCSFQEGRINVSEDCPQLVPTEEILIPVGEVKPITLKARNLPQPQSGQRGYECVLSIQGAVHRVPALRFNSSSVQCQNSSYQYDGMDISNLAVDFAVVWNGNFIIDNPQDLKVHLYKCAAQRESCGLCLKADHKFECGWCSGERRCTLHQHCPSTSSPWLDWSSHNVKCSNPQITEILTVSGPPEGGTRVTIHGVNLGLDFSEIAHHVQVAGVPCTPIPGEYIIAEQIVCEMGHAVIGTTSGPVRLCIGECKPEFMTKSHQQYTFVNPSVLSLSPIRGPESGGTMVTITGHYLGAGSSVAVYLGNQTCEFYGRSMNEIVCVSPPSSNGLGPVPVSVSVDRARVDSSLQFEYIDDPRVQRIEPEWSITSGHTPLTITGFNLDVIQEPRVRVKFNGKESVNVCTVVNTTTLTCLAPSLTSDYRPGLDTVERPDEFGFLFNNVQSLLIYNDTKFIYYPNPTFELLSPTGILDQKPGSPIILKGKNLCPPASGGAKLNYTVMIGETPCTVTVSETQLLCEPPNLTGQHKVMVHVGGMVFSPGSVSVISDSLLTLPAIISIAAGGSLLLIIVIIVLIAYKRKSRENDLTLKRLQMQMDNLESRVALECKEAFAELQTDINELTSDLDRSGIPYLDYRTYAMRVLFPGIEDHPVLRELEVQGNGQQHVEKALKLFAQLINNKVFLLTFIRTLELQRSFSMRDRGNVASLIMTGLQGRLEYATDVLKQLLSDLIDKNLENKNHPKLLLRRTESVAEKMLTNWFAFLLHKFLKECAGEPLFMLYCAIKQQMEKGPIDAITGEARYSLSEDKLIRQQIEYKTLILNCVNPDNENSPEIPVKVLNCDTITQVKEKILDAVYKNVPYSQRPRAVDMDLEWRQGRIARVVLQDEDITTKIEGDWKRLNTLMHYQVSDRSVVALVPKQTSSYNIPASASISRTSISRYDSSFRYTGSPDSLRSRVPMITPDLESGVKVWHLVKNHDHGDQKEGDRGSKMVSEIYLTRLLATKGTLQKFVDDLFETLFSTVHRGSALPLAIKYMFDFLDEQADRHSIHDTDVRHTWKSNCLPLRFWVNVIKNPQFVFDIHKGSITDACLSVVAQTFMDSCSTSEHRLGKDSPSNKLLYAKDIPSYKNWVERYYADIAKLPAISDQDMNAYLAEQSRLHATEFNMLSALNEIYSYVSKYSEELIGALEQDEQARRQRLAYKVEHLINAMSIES
plexin-A2 containing a point mutation in the semaphorin binding site (PlexA2/A396E) (P70207, form named): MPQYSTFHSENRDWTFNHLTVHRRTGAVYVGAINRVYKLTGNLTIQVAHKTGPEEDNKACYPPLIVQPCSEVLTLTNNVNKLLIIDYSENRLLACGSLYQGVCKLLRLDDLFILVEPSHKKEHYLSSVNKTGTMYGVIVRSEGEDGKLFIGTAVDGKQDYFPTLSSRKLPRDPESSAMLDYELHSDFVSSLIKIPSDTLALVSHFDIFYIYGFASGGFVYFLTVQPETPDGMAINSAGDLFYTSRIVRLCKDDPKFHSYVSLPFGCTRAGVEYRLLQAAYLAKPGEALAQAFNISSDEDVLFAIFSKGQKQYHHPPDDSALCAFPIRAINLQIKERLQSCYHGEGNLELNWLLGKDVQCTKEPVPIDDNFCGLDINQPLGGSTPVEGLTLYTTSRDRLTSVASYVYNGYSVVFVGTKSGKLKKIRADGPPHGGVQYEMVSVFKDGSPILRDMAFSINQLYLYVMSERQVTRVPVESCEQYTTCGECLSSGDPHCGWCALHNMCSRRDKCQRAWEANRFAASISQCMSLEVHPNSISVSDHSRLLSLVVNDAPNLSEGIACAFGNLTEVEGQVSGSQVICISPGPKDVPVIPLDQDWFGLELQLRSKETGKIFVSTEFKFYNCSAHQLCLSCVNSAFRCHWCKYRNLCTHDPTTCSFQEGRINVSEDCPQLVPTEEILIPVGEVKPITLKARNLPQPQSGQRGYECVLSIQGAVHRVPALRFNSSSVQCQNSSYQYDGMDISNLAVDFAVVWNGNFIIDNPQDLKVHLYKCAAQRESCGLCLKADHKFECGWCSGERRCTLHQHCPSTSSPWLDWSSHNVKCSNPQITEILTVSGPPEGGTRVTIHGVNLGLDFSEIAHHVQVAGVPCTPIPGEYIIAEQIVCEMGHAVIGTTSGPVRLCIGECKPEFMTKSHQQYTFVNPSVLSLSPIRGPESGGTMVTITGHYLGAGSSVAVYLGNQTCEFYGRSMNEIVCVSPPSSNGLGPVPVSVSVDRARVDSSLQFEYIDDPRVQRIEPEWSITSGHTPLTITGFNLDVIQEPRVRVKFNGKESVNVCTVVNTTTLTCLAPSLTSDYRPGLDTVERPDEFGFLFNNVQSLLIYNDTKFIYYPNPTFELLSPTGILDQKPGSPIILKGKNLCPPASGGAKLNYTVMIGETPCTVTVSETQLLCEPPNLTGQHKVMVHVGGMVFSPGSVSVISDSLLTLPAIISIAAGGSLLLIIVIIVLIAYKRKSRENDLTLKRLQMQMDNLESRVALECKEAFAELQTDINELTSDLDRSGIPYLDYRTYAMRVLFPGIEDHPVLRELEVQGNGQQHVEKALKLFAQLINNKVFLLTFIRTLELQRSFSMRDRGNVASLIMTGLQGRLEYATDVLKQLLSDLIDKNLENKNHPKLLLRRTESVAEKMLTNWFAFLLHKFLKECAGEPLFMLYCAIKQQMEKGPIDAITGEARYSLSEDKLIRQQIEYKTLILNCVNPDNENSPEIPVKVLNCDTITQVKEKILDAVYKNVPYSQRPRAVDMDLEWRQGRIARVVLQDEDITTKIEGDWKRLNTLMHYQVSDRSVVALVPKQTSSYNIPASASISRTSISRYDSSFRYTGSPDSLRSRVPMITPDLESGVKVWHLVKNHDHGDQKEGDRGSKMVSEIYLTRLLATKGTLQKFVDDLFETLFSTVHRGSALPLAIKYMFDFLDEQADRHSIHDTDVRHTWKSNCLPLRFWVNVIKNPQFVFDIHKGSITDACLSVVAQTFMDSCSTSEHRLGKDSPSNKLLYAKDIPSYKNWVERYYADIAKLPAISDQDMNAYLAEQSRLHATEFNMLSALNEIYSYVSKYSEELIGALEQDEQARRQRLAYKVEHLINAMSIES

Key:
[1] = molecular target: plexin-A2 (full length, V5 tagged), re-expressed in U87MG plexin-A2 knock-out clone 54.3 cells (UniProt P70207); test: alkaline phosphatase binding assay on cells; plexin-A2 or PlexA2/A396E on U87MG KO clone 54.3 cells; 20-fold concentrated sema6A-Fc conditioned medium with AP-conjugated goat anti-human IgG (1/5000), 45 min at 4 °C; binding buffer HBSS with 0.5% BSA, 0.1% NaN3, 5 mM CaCl2, 1 mM MgCl2, 20 mM HEPES pH 7.0; BCIP/NBT staining, stained cell area measured
[2] = molecular target: plexin-A2 containing a point mutation in the semaphorin binding site (PlexA2/A396E) (UniProt P70207); test: condition: 20-fold concentrated sema6A-Fc conditioned medium; alkaline phosphatase binding assay on cells; plexin-A2 or PlexA2/A396E on U87MG KO clone 54.3 cells; 20-fold concentrated sema6A-Fc conditioned medium with AP-conjugated goat anti-human IgG (1/5000), 45 min at 4 °C; binding buffer HBSS with 0.5% BSA, 0.1% NaN3, 5 mM CaCl2, 1 mM MgCl2, 20 mM HEPES pH 7.0; BCIP/NBT staining, stained cell area measured

binding [1]: binds
binding [2]: no binding
B1: recombinant sema6A-fc fusion protein (extra-cellular region of sema6A fused to the human Fc) (Fc fusion, UniProt O35464 19-649)
chain: GFPEDSEPISISHGNYTKQYPVFVGHKPGRNTTQRHRLDIQMIMIMNRTLYVAARDHIYTVDIDTSHTEEIYCSKKLTWKSRQADVDTCRMKGKHKDECHNFIKVLLKKNDDTLFVCGTNAFNPSCRNYRVDTLETFGDEFSGMARCPYDAKHANIALFADGKLYSATVTDFLAIDAVIYRSLGDSPTLRTVKHDSKWLKEPYFVQAVDYGDYIYFFFREIAVEYNTMGKVVFPRVAQVCKNDMGGSQRVLEKQWTSFLKARLNCSVPGDSHFYFNILQAVTDVIRINGRDVVLATFSTPYNSIPGSAVCAYDMLDIANVFTGRFKEQKSPDSTWTPVPDERVPKPRPGCCAGSSSLEKYATSNEFPDDTLNFIKTHPLMDEAVPSIINRPWFLRTMVRYRLTKIAVDNAAGPYQNHTVVFLGSEKGIILKFLARIGSSGFLNGSLFLEEMNVYNPEKCSYDGVEDKRIMGMQLDRASGSLYVAFSTCVIKVPLGRCERHGKCKKTCIASRDPYCGWVRESGSCAHLSPLSRLTFEQDIERGNTDGLGDCHNSFVALNGHASSLYPSTTTSDSASRDGYESRGGMLDWNDLLEAPGSTDPLGAVSSHNHQDKKGVIRESYLKSNDQLVPVT
